Measurements reported in PubChem BioAssay AID1259405 (NCATS, 2018)
This is one part, drawn at random, of about 50,000 deposited reagents. Over the whole deposit, about 4,000 (8%) got an active call. 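Mouse siRNA library applied to hamster cells; one well for each siRNA.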 Reagents against one gene are numbered here.

Assay: 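Silenced genes that increase secreted GFP made by CHO cells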 (primary screen)
Cells: Chinese hamster CHO-K1 ovary cells with stable secreted eGFP expression
Reagent: single siRNA against mouse genes, 0.8 pmol siRNA per well (2 µl of 400 nM stock)
Time to read-out: 3 days
Measured: 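Percent of the per-plate non-targeting control median for intracellular GFP per well by laser scanning cytometry and for cell viability by ATP luminescence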
Direction: GFP, % of control: higher = more GFP per well, higher productivity; viability (ATP), % of control: higher = more viable cells (more ATP)
Call rule: 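a knock-down is called active if GFP reaches 120% or more of non-targeting control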

{"target gene": "Mael (maelstrom spermatogenic transposon silencer)", "siRNA no.": 1, "GFP, % of control": 78.7, "viability (ATP), % of control": 64.4, "activity call": "inactive"}
{"target gene": "Mael (maelstrom spermatogenic transposon silencer)", "siRNA no.": 2, "GFP, % of control": 73.1, "viability (ATP), % of control": 91.6, "activity call": "inactive"}
{"target gene": "Mael (maelstrom spermatogenic transposon silencer)", "siRNA no.": 3, "GFP, % of control": 95.2, "viability (ATP), % of control": 96.5, "activity call": "inactive"}
{"target gene": "Cd209e (CD209e antigen)", "siRNA no.": 1, "GFP, % of control": 81.6, "viability (ATP), % of control": 94.2, "activity call": "inactive"}
{"target gene": "Cd209e (CD209e antigen)", "siRNA no.": 2, "GFP, % of control": 75.8, "viability (ATP), % of control": 86.6, "activity call": "inactive"}
{"target gene": "Cd209e (CD209e antigen)", "siRNA no.": 3, "GFP, % of control": 108, "viability (ATP), % of control": 89, "activity call": "inactive"}
{"target gene": "Setdb1 (SET domain, bifurcated 1)", "siRNA no.": 1, "GFP, % of control": 134, "viability (ATP), % of control": 120, "activity call": "active"}
{"target gene": "Setdb1 (SET domain, bifurcated 1)", "siRNA no.": 2, "GFP, % of control": 85.6, "viability (ATP), % of control": 91.3, "activity call": "inactive"}
{"target gene": "Ngrn (neugrin, neurite outgrowth associated)", "siRNA no.": 1, "GFP, % of control": 65.8, "viability (ATP), % of control": 59.8, "activity call": "inactive"}
{"target gene": "Ngrn (neugrin, neurite outgrowth associated)", "siRNA no.": 2, "GFP, % of control": 97.2, "viability (ATP), % of control": 81.9, "activity call": "inactive"}
{"target gene": "Ngrn (neugrin, neurite outgrowth associated)", "siRNA no.": 3, "GFP, % of control": 90.6, "viability (ATP), % of control": 89.8, "activity call": "inactive"}
{"target gene": "Ubn2 (ubinuclein 2)", "siRNA no.": 1, "GFP, % of control": 69.2, "viability (ATP), % of control": 76.3, "activity call": "inactive"}
{"target gene": "Ubn2 (ubinuclein 2)", "siRNA no.": 2, "GFP, % of control": 54.2, "viability (ATP), % of control": 81.1, "activity call": "inactive"}
{"target gene": "Ubn2 (ubinuclein 2)", "siRNA no.": 3, "GFP, % of control": 55, "viability (ATP), % of control": 54.6, "activity call": "inactive"}
{"target gene": "Hoxb1 (homeobox B1)", "siRNA no.": 1, "GFP, % of control": 53.4, "viability (ATP), % of control": 71.1, "activity call": "inactive"}
{"target gene": "Hoxb1 (homeobox B1)", "siRNA no.": 2, "GFP, % of control": 59.8, "viability (ATP), % of control": 80.1, "activity call": "inactive"}
{"target gene": "Hoxb1 (homeobox B1)", "siRNA no.": 3, "GFP, % of control": 70.2, "viability (ATP), % of control": 78.6, "activity call": "inactive"}
{"target gene": "Ppip5k1 (diphosphoinositol pentakisphosphate kinase 1)", "siRNA no.": 1, "GFP, % of control": 76.1, "viability (ATP), % of control": 73.7, "activity call": "inactive"}
{"target gene": "Ppip5k1 (diphosphoinositol pentakisphosphate kinase 1)", "siRNA no.": 2, "GFP, % of control": 108, "viability (ATP), % of control": 93.5, "activity call": "inactive"}
{"target gene": "Ppip5k1 (diphosphoinositol pentakisphosphate kinase 1)", "siRNA no.": 3, "GFP, % of control": 80.5, "viability (ATP), % of control": 71.8, "activity call": "inactive"}
{"target gene": "Mbd4 (methyl-CpG binding domain protein 4)", "siRNA no.": 1, "GFP, % of control": 65.9, "viability (ATP), % of control": 100, "activity call": "inactive"}
{"target gene": "Mbd4 (methyl-CpG binding domain protein 4)", "siRNA no.": 2, "GFP, % of control": 54.8, "viability (ATP), % of control": 53, "activity call": "inactive"}
{"target gene": "Mbd4 (methyl-CpG binding domain protein 4)", "siRNA no.": 3, "GFP, % of control": 154, "viability (ATP), % of control": 38.5, "activity call": "active"}
{"target gene": "Ddr1 (discoidin domain receptor family, member 1)", "siRNA no.": 1, "GFP, % of control": 145, "viability (ATP), % of control": 50, "activity call": "active"}
{"target gene": "Ddr1 (discoidin domain receptor family, member 1)", "siRNA no.": 2, "GFP, % of control": 99.6, "viability (ATP), % of control": 87.1, "activity call": "inactive"}
{"target gene": "Ddr1 (discoidin domain receptor family, member 1)", "siRNA no.": 3, "GFP, % of control": 96.7, "viability (ATP), % of control": 98.9, "activity call": "inactive"}
{"target gene": "Kif18a (kinesin family member 18A)", "siRNA no.": 1, "GFP, % of control": 115, "viability (ATP), % of control": 65.3, "activity call": "inactive"}
{"target gene": "Kif18a (kinesin family member 18A)", "siRNA no.": 2, "GFP, % of control": 86, "viability (ATP), % of control": 92.7, "activity call": "inactive"}
